# Measured values from PubChem BioAssay AID2685 (National Center for Advancing Translational Sciences (NCATS), 2010).
# The list shows a part of the results. Some of these compounds have results that are not shown, active ones among them.
# Assay: qHTS Assay for Lipid Storage Modulators in Drosophila S3 Cells
# Settings: BODIPY lipid droplet fluorescence, 18-24 h, measured here: cell count max response, cells fed with added oleic acid
row,Structure (SMILES),cell number change
1,CN(C)c1ccc(C(=O)NCC2(N(C)C)CCCCC2)cc1,-1.39%
2,CN(C)C1CCCC1OC(=O)C(O)(c1ccccc1)c1ccccc1 (centres undefined),8.24%
3,CCN1CCCC(OC(=O)C2(O)c3ccccc3C=Cc3ccccc32)C1 (centres undefined),-9.18%
4,O=C(NCC1(N2CCCCC2)CCCCC1)c1cccc(Br)c1,-9.21%
5,COc1ccc(C(=O)NCC2(N(C)C)CCCCC2)cc1,17.1%
6,O=C(NCC1(N2CCCCC2)CCCCC1)c1cc([N+](=O)[O-])ccc1Cl,19.7%
7,COc1cc(SC)ccc1C(=O)NCC1(N(C)C)CCCCC1,25.2%
8,COc1ccc(Br)c(C(=O)NCC2(N3CCCCC3)CCCCC2)c1,1.23%
9,CC(C)Oc1ccc(C(=O)NCC2(N(C)C)CCCCC2)cc1,0.213%
